# Test results published in patent US20110280807A1, “Methods and Models for Stress-Induced Analgesia” (UNIVERSITY OF GEORGIA RESEARCH FOUNDATION, INC., priority 2005, published 2011).
# Experiment: LC/MS/MS quantification of endocannabinoids in brain tissue after footshock
# Format: in vivo, rat
# Settings: dorsal midbrain samples containing dorsolateral periaqueductal gray
structure (smiles),measurement,value
"CCCCC/C=C\C/C=C\C/C=C\C/C=C\CCCCOC(CO)CO [2-AG, 2arachidonylglycerol]","elevation of 2-AG level, stressor vs non-shocked control rats",40.6%
